This note sets out measurements from article PMC12431657, “Discovery and mechanistic insights of dibenzoylmethane as a broad spectrum inhibitor of coronavirus” (PLOS Pathogens, 2025).

The structures appear in SMILES notation. Structures can show the parent of a compound that is named as a salt. Where two headings read alike, the source gives them in different places. Among all 3,300 compounds or so, about 95 (3%) showed an effect of 50% or more. The list shows a part of the results.

The experiment concerns HCoV-229E. Details: species or system Huh-7; HTS, protection from HCoV-229E induced cell death, luminescent cell viability (CellCounting-Lite 2.0), inhibition rate. To be noted: 24 h post infection, 1 h compound pre-incubation, 10 µM, inhibitor.

In the case of `C[Se]C[C@H](N)C(=O)O` [Se-Methylselenocysteine], the “229E Inhibition rate” value came out at 9.7%.

In the case of `O=C(O)[C@@H]1C[C@@H](O)CN1` [L-Hydroxyproline,BioReagent, suitable for cell culture], the “229E Inhibition rate” value is listed as 14.9%.

In the case of `CC(C)(CO)[C@@H](O)C(=O)NCCC(=O)O` [D-Pantothenic acid (hemicalcium salt)], the “229E Inhibition rate” value (229E Inhibition rate, 24 h) came out at 22.5%.

Consider `C[C@H]1[C@H](C)CC[C@]2(C(=O)O)CC[C@]3(C)C(=CC[C@@H]4[C@@]5(C)CC[C@H](O)C(C)(C)[C@@H]5CC[C@]43C)[C@H]12` [Ursolic acid], for which the “229E Inhibition rate” value was determined as 17.1%.

With `Oc1cc(O)c2c(c1)O[C@]1(c3ccc(O)c(O)c3)Oc3cc(O)c4c(c3[C@H]2C1O)OC(c1ccc(O)c(O)c1)C(O)C4` (stereo partly shown) [Procyanidin A1], the “229E Inhibition rate” value is given as 8.3%.

For the molecule `NC1(C(=O)O)CC1` [1-Aminocyclopropane-1-carboxylic acid], the “229E Inhibition rate” value amounted to 14%.

On to `COc1ccc(-c2cc(=O)c3c(O)c(OC)c(OC)c(OC)c3o2)cc1` [Gardenin B], for which the “229E Inhibition rate” value was 22.6%.

As to `CCCCCCCCCCCCCC1=C(O)C(=O)C=C(O)C1=O` [Rapanone], the “229E Inhibition rate” value is recorded as 9%.

For the molecule `C[C@H](CCC(=O)O)[C@H]1CC[C@H]2[C@@H]3CC[C@@H]4C[C@H](O)CC[C@]4(C)[C@H]3C[C@H](O)[C@]12C` [Deoxycholic acid], the “229E Inhibition rate” value (229E Inhibition rate, 24 h) is recorded as 6.3%.

In the case of `C[C@H](O)C(=O)O` [L-Lactic acid], the “229E Inhibition rate” value amounted to 58.1%.

On to `CC(=O)c1cccc(O)c1` [3-Hydroxyacetophenone], for which the “229E Inhibition rate” value turned out to be 21.5%.

Take `Cc1cc2nc3c(=O)[nH]c(=O)nc-3n(C[C@H](O)[C@H](O)[C@H](O)CO)c2cc1C` [Riboflavin]: the “229E Inhibition rate” value came to 22.6%.

As to `C=CCSSCC=C` [Diallyl disulfide], the “229E Inhibition rate” value is listed as 13.8%.

With `Nc1ccncc1O` [3-Hydroxy-4-aminopyridine], the “229E Inhibition rate” value is 16.7%.

As to `O=C1C[C@@H](c2ccc(O)cc2)Oc2cc(O[C@@H]3O[C@H](CO)[C@@H](O)[C@H](O)[C@H]3O)cc(O)c21` [Prunin], the “229E Inhibition rate” value amounted to 10.7%.

Regarding `CCCCC/C=C/C=C/C(=O)NCC(C)C` [Pellitorine], the “229E Inhibition rate” value came to 14.2%.

For `CC(C)[C@]12O[C@H]1[C@@H]1O[C@]13[C@]1(O[C@H]1C[C@H]1C4=C(CC[C@@]13C)C(=O)OC4)[C@@H]2O` [Triptolide], the “229E Inhibition rate” value is on record as 7.2%.

For `OC1OC[C@@H](O[C@@H]2OC[C@@H](O[C@@H]3OC[C@@H](O)[C@H](O)[C@H]3O)[C@H](O)[C@H]2O)[C@H](O)[C@H]1O` (stereo partly shown) [Xylotriose], the “229E Inhibition rate” value came to 28.5%.

Take `O=C(/C=C/c1ccc(O)c2c1[C@H](C(=O)O)[C@@H](c1ccc(O)c(O)c1)O2)O[C@H](Cc1ccc(O)c(O)c1)C(=O)O` [Lithospermic acid]: the “229E Inhibition rate” value amounted to 26.7%.
